Reference: PubChem BioAssay AID248 (DTP/NCI, 2004)
The list is a part of this screen's results and no random one: it gathers tests that were run many times, whatever their T/C, doses with no T/C, and many T/C values between a quarter and a half above the control. Other doses and runs of a compound stand elsewhere. T/C: endpoint of the treated group in % of that of the vehicle group. Some doses have a count of surviving animals in place of a T/C: the source files T/C as zero there, which appears to mark a toxic dose or a test without result, not a measured value. Some doses without a T/C left all or most animals alive at the check, yet need not have been tolerated: the source hardly ever lists a survival T/C far under the control, and the zero likely stands for such cases as well. Survivors were counted at the toxicity check, usually on the fifth day, unless a day is given; later deaths do not show. Schedules are NCI's codes, taken here to give the interval after Q, in days (D) or hours (H), and the number of doses after X. Some entries hold several experiments; the results are listed from low to high. Some schedule codes hold Z or #, which are not explained here. Some structures stand for samples that the source files as different forms (salt, stereo form or complex); doses refer to the form tested. Where survival is the endpoint, the PubChem record calls one and a half times the control and up active, and a quarter to a half above the control has no call in these data; cut-offs in other NCI protocols can differ. Some T/C values are followed by the survivors on the day toxicity was checked, most often the fifth; without a count, all were alive then.

Test system: L1210 leukemia ip in BDF1 mice, survival T/C
Experiment: NCI In Vivo Anticancer Drug Screen. Data for tumor model L1210 Leukemia (intraperitoneal) in B6D2F1 (BDF1) mice
Settings: T/C endpoint: mean survival time, higher T/C = longer survival
[1] = dose: 400.0 mg/kg/injection, schedule: Q04DX003 (ip), vehicle: saline with Tween-80
[2] = dose: 400.0 mg/kg/injection, schedule: Q01DX009 (ip), vehicle: Klucel (hydroxypropylcellulose) (HPC)
[3] = dose: 100.0 mg/kg/injection, schedule: Q01DX009 (ip), vehicle: Klucel (hydroxypropylcellulose) (HPC)
[4] = dose: 200.0 mg/kg/injection, schedule: Q01DX009 (ip), vehicle: Klucel (hydroxypropylcellulose) (HPC)
[5] = dose: 150.0 mg/kg/injection, schedule: Q01DX001 (ip), vehicle: other
[6] = dose: 300.0 mg/kg/injection, schedule: Q01DX001 (ip), vehicle: other
[7] = dose: 50.0 mg/kg/injection, schedule: Q01DX009 (ip), vehicle: saline
[8] = dose: 75.0 mg/kg/injection, schedule: Q01DX001 (ip), vehicle: saline
[9] = dose: 400.0 mg/kg/injection, schedule: Q01DX009 (ip), vehicle: saline with Tween-80
[10] = dose: 300.0 mg/kg/injection, schedule: Q01DX001 (ip), vehicle: saline

CC(=O)NC(CCC(=O)C=[N+]=N)C(=O)O (stereo not given)
T/C (dose: 0.4 mg/kg/injection, schedule: Q01DX009 (ip), vehicle: other, evaluated on day 35): 138 % of control
T/C (dose: 0.4 mg/kg/injection, schedule: Q01DX009 (ip), vehicle: other, evaluated on day 99): 133 % of control
T/C (dose: 0.6 mg/kg/injection, schedule: Q01DX009 (ip), vehicle: other, evaluated on day 35): 125 % of control
T/C (dose: 0.6 mg/kg/injection, schedule: Q01DX009 (ip), vehicle: other, evaluated on day 99): 136 % of control
survivor count (dose: 0.6 mg/kg/injection, schedule: Q01DX009 (ip), vehicle: other): 6 of 6
survivor count (dose: 0.8 mg/kg/injection, schedule: Q01DX009 (ip), vehicle: other): 5 of 6 and 6 of 6
T/C (dose: 1.0 mg/kg/injection, schedule: Q01DX001 (ip), vehicle: saline): 125 and 140 % of control
survivor count (dose: 1.0 mg/kg/injection, schedule: Q01DX009 (ip), vehicle: other): 5 of 6 and 6 of 6
survivor count (dose: 3.5 mg/kg/injection, schedule: Q01DX009 (ip), vehicle: saline): 6 of 6
T/C (dose: 5.0 mg/kg/injection, schedule: Q03HX016 (ip), vehicle: other): 127 % of control [9 of 10 alive]
survivor count (dose: 5.3 mg/kg/injection, schedule: Q01DX009 (ip), vehicle: saline): 6 of 6
T/C (dose: 8.0 mg/kg/injection, schedule: Q01DX001 (ip), vehicle: saline): 128 % of control
survivor count (dose: 8.0 mg/kg/injection, schedule: Q01DX009 (ip), vehicle: saline): 4 of 6
T/C (dose: 8.0 mg/kg/injection, schedule: Q04DX003 (ip), vehicle: other): 142 % of control
T/C (dose: 10.0 mg/kg/injection, schedule: Q03HX016 (ip), vehicle: other): 140 % of control [8 of 10 alive]
T/C (dose: 10.0 mg/kg/injection, schedule: Q08DX002 (ip), vehicle: other): 131 % of control
survivor count (dose: 12.0 mg/kg/injection, schedule: Q01DX009 (ip), vehicle: saline): 5 of 6
T/C (dose: 20.0 mg/kg/injection, schedule: Q03HX016 (ip), vehicle: other): 146 % of control

Cc1c2ccncc2c(C)c2c1[nH]c1ccc(Cl)cc12
survivor count [1]: 6 of 6

CCOS(=O)(=O)c1ccc([N+](=O)[O-])cc1[N+](=O)[O-]
survivor count (dose: 400.0 mg/kg/injection, schedule: Q01DX009 (ip), vehicle: saline): 3 of 6

CCC(CO)Nc1nc2ccc([N+](=O)[O-])cc2c2ccccc12 (stereo not given)
survivor count [2]: 6 of 6

O=[N+]([O-])c1ccc2c(c1)c(-c1cccc(-c3ccccc3)c1)nc1ccccc12
survivor count [1]: 5 of 6

NC(=O)c1c(Cl)nsc1Cl
survivor count [3]: 3 of 6
survivor count [4]: 0 of 6
survivor count [2]: 0 of 6

Clc1ccc(-c2nn[nH]n2)cc1
survivor count (dose: 400.0 mg/kg/injection, schedule: Q04DX002 (ip), vehicle: Klucel (hydroxypropylcellulose) (HPC)): 1 of 3

COC(=O)C1C(O)CC2CCC1[N+]2(C)C (stereo not given)
survivor count (dose: 400.0 mg/kg/injection, schedule: Q01DX001 (ip), vehicle: saline): 0 of 6

OCCCCN=Cc1ccccc1O.OCCCCN=Cc1ccccc1O.[Cu]
survivor count [5]: 1 of 6
survivor count [6]: 1 of 6

CC(CCNc1ccc(NCCC(C)CC(C)(C)C)cc1)CC(C)(C)C (stereo not given)
survivor count [2]: 6 of 6

CC(C)C(CCN1CCCCC1)(CNC1=NCCN1)c1cccc2ccccc12 (stereo not given)
survivor count [3]: 0 of 6
survivor count [4]: 0 of 6
survivor count [2]: 0 of 6

CCCCOC1CC2c3ccccc3C1c1cccc[n+]12 (stereo not given)
survivor count (dose: 25.0 mg/kg/injection, schedule: Q04DX003 (ip), vehicle: saline): 1 of 6
survivor count [7]: 0 of 6 and 3 of 6

Cc1c2ccccc2nc(CNC2CCCCC2)[n+]1[O-]
survivor count (dose: 100.0 mg/kg/injection, schedule: Q01DX001 (ip), vehicle: acetone): 0 of 6
survivor count (dose: 200.0 mg/kg/injection, schedule: Q01DX001 (ip), vehicle: acetone): 0 of 6
survivor count (dose: 400.0 mg/kg/injection, schedule: Q01DX001 (ip), vehicle: acetone): 0 of 6

O=c1cc(CO)occ1O.O=c1cc(CO)occ1O.[O]=[V]
survivor count (dose: 32.0 mg/kg/injection, schedule: Q01DX015 (ip), vehicle: carboxymethylcellulose (CMC)): 3 of 6
survivor count (dose: 50.0 mg/kg/injection, schedule: Q01DX001 (ip), vehicle: carboxymethylcellulose (CMC)): 2 of 4
survivor count [7]: 1 of 6
survivor count [8]: 3 of 6
survivor count (dose: 75.0 mg/kg/injection, schedule: Q04DX003 (ip), vehicle: saline): 1 of 6
survivor count (dose: 100.0 mg/kg/injection, schedule: Q01DX001 (ip), vehicle: carboxymethylcellulose (CMC)): 1 of 4
survivor count (dose: 115.0 mg/kg/injection, schedule: Q01DX001 (ip), vehicle: saline): 0 of 6
survivor count (dose: 115.0 mg/kg/injection, schedule: Q04DX003 (ip), vehicle: saline): 1 of 6
survivor count (dose: 170.0 mg/kg/injection, schedule: Q01DX001 (ip), vehicle: saline): 0 of 6
survivor count (dose: 170.0 mg/kg/injection, schedule: Q04DX003 (ip), vehicle: saline): 0 of 6
survivor count (dose: 200.0 mg/kg/injection, schedule: Q01DX001 (ip), vehicle: carboxymethylcellulose (CMC)): 0 of 4
survivor count (dose: 400.0 mg/kg/injection, schedule: Q01DX001 (ip), vehicle: carboxymethylcellulose (CMC)): 0 of 4

O=C1c2cccc3c([N+](=O)[O-])ccc(c23)C(=O)N1NCCO
survivor count (dose: 400.0 mg/kg/injection, schedule: Q04DX003 (ip), vehicle: carboxymethylcellulose (CMC)): 1 of 6

COC(OC)c1[nH]c(=S)[nH]c(=O)c1Cc1ccccc1
survivor count (dose: 100.0 mg/kg/injection, schedule: Q01DX009 (ip), vehicle: saline with Tween-80): 6 of 6
survivor count [9]: 6 of 6

O=C(Nc1cccc(C2=NCCN2)c1)c1ccc(OCCCOc2ccc(C(=O)Nc3cccc(C4=NCCN4)c3)cc2)cc1
survivor count (dose: 50.0 mg/kg/injection, schedule: Q01DX Z (ip), vehicle: water): 2 of 6
survivor count (dose: 100.0 mg/kg/injection, schedule: Q01DX Z (ip), vehicle: water): 0 of 6

Clc1ccc(/C(=N\OC(c2ccccc2)c2ccccc2)c2ccccc2)cc1
survivor count (dose: 100.0 mg/kg/injection, schedule: Q01DX001 (ip), vehicle: saline): 6 of 6

CCC1=C(CC2NCCc3cc(OC)c(OC)cc32)CC2c3ccccc3CCN2C1 (stereo not given)
survivor count [10]: 0 of 6 and 2 of 6

CC(=O)c1cc2cc(Cl)cc(Cl)c2oc1=O
survivor count [9]: 2 of 3

C/C=C/CC1(Cc2ccccc2)C(=O)NC(=S)NC1=O
survivor count (dose: 40.0 mg/kg/injection, schedule: Q01DX001 (ip), vehicle: saline): 1 of 6
survivor count (dose: 75.0 mg/kg/injection, schedule: Q01DX001 (ip), vehicle: other): 1 of 6
survivor count [8]: 2 of 6
survivor count [5]: 0 of 6
survivor count (dose: 150.0 mg/kg/injection, schedule: Q01DX001 (ip), vehicle: saline): 0 of 6
survivor count [6]: 0 of 6
survivor count [10]: 0 of 6

COc1ccc(Cl)c(NC(=O)Nc2cc(Cl)ccc2C)c1
survivor count (dose: 200.0 mg/kg/injection, schedule: Q01DX009 (ip), vehicle: saline with Tween-80): 3 of 3
survivor count [9]: 3 of 3

CC(=O)Nc1ccc(/C=N\NC(=O)CCCC(=O)N/N=C/c2ccc(NC(C)=O)cc2)cc1
survivor count (dose: 200.0 mg/kg/injection, schedule: Q01DX009 (ip), vehicle: saline): 6 of 6

CC(=O)OC1CCC2(C)C(=CCC3C2CCC2(C)C3CC3C(c4ccccc4Br)=NN(c4ccccc4)C32C#N)C1 (stereo not given)
T/C (dose: 12.5 mg/kg/injection, schedule: Q04DX002 (ip), vehicle: Klucel (hydroxypropylcellulose) (HPC)): 125 % of control
survivor count (dose: 25.0 mg/kg/injection, schedule: Q04DX002 (ip), vehicle: Klucel (hydroxypropylcellulose) (HPC)): 3 of 3
